# Primary screen of a compound library

By UniProt entry, the sequences of proteins in these tests, tags left out. Residues count along the entry.
UniProt Q4DA54, 1-478: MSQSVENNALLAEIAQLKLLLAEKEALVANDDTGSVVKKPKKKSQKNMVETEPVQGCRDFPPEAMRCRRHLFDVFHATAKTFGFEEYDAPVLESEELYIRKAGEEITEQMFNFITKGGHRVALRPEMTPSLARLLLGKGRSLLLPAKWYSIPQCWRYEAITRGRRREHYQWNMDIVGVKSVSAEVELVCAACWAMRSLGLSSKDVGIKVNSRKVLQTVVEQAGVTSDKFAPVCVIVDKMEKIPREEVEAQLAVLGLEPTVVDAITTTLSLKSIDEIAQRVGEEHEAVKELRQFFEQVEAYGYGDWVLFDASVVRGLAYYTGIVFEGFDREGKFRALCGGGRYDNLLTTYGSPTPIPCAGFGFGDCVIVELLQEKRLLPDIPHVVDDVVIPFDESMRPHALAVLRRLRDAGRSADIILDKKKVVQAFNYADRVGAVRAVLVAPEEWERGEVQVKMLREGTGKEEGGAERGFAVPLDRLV
UniProt P9WPC5, whole entry: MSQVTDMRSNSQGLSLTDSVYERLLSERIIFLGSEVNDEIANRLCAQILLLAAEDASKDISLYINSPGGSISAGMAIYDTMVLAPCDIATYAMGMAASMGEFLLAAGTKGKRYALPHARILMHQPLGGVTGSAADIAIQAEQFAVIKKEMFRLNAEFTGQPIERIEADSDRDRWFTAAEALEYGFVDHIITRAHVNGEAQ
UniProt P9WPC3, whole entry partner: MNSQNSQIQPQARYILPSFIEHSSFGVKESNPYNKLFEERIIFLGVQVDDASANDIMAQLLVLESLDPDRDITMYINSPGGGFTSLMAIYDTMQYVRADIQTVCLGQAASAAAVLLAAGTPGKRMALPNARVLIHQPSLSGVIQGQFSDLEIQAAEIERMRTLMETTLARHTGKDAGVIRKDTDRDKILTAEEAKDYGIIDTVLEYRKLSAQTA
UniProt Q8IDJ8, 1-583: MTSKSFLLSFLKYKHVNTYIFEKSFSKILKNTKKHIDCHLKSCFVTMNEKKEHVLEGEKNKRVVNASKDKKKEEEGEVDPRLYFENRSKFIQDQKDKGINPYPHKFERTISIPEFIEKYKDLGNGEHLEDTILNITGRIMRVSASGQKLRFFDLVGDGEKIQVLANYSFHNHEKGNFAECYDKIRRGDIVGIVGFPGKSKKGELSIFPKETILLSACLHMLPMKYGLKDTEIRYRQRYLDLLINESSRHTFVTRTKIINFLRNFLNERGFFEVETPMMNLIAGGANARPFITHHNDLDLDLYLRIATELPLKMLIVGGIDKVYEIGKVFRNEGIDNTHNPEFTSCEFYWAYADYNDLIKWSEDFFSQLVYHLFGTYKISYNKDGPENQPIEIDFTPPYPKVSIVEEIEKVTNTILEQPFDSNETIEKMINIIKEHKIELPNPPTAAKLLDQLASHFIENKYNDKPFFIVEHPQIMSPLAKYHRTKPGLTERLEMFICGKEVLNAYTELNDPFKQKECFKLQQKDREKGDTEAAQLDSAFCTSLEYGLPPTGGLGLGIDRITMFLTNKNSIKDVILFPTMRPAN
UniProt A4I591, 1-473: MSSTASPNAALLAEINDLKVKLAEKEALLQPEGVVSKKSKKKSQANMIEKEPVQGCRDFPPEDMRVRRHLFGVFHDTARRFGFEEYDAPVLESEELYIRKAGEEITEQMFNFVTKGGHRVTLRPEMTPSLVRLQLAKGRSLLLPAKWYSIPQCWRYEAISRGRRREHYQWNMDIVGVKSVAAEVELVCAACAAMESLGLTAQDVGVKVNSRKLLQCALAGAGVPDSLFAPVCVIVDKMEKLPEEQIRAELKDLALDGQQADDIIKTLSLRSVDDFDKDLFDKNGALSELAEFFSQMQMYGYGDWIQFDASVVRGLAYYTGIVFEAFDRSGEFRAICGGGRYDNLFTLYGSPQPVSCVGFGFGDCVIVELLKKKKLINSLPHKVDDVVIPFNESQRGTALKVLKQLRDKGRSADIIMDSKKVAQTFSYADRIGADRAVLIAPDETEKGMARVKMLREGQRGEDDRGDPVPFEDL

TcHisRS: 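Histidine-tRNA ligase, Trypanosoma cruzi CL Brener (UniProt Q4DA54). Enzyme assay of histidyl-tRNA synthetase; the read-out is not stated. Concentration: 30 µM. Higher reads as stronger inhibition (inferred: compounds with an IC50 in retests scored well above the rest). Size under these conditions: about 69,000 compounds, about 31 of them at 50% or above in at least one test.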
ClpP1P2: 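Protease assay of ClpP1P2, read by the AMC dye that it sets free. Target: ClpP1P2, Mycobacterium tuberculosis (UniProt P9WPC5 and UniProt P9WPC3). Concentration: 50 µM. Higher reads as stronger inhibition, judged from the few compounds that gave an IC50. Most other retested compounds had strongly negative values. Of about 69,000 compounds tested this way, about 10 (0.015%) reached 50% or more in at least one test.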
PfKRS1: 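Enzyme assay of the cytosolic lysyl-tRNA synthetase in 384-well plates, read by luminescence. Target: Lysine-tRNA ligase, Plasmodium falciparum 3D7 (UniProt Q8IDJ8). Tested at 30 µM. Higher reads as stronger inhibition, judged from the few compounds that gave an IC50. About 69,000 compounds were tested under these conditions; 0.071% (about 49) showed 50% or more at least once.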
LiHisRS: 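Enzyme assay of histidyl-tRNA synthetase; the read-out is not stated. Target: Histidine-tRNA ligase, Leishmania infantum (UniProt A4I591). Concentration: 30 µM. Higher reads as stronger inhibition (inferred: compounds with an IC50 in retests scored well above the rest). The assay is labelled LdHisRS but filed under L. infantum. Size under these conditions: about 69,000 compounds, about 410 of them at 50% or above in at least one test.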

Values are the deposited “Percent Effect”, in %. How 0% and 100% were set is not recorded. Most values in the screen are low, and negative values occur. This is an unselected part of the compounds tested.

With CN(Cc1cncnc1)[C@@H]1CN(Cc2ccco2)C[C@@H]2CCCO[C@@H]21 the screen gave TcHisRS: 12.4%; ClpP1P2: 8.853%; PfKRS1: 1.224%; LiHisRS: 10.91%. CCc1nnc(CN(CC)C(=O)C2CC(=O)N(Cc3cccnc3)C2)o1 (configuration not stated) read TcHisRS: 3.004%; ClpP1P2: -7.145%; PfKRS1: 1.515%; LiHisRS: 1.639%. COc1ccccc1[C@@H]1CN(Cc2ccc3nsnc3c2)C[C@H]1C(=O)O gave TcHisRS: 1.058%; ClpP1P2: -0.3353%; PfKRS1: 0.6054%; LiHisRS: 21.21%. O=C1NC(c2cnc(C3CCC3)s2)Nc2ncccc21 (configuration not stated) read TcHisRS: 5.288%; ClpP1P2: -12.52%; PfKRS1: -0.09803%; LiHisRS: 17.07%. For O=C(O)CCC(=O)N1CCN(CC2CC2)c2ncccc2C1 the result was TcHisRS: 1.02%; ClpP1P2: 3.791%; PfKRS1: -3.784%; LiHisRS: -5%.

For c1ccc(Cn2cccn2)c(CNCC2CNc3ccnn3C2)c1 (configuration not stated) the result was TcHisRS: 7.634%; ClpP1P2: 1.98%; PfKRS1: 1.403%; LiHisRS: 41.1%. Result for O=C(Nc1nncs1)N1CCC(CCO)CC1 was TcHisRS: 4.255%; ClpP1P2: -6.781%; PfKRS1: 3.918%; LiHisRS: -6.25%. For COc1ccc(C(C)NCc2c[nH]nc2C)cc1OC (configuration not stated) the result was TcHisRS: 10.24%; ClpP1P2: -8.078%; PfKRS1: -3.415%; LiHisRS: 17.58%. With CN1CCOC(CN(C(=O)COc2ccccc2)c2nccs2)C1 (configuration not stated) the screen gave TcHisRS: 2.907%; ClpP1P2: -17.19%; PfKRS1: 1.995%; LiHisRS: 7.143%. O=C(CCCNc1ncccn1)N1CCCC(n2cncn2)C1 (configuration not stated) read TcHisRS: -2.817%; ClpP1P2: -1.638%; PfKRS1: 1.352%; LiHisRS: 2.609%.

With CCOc1cccc(CNc2cnn(CC(C)C)c2CC)c1 the screen gave TcHisRS: -0.9852%; ClpP1P2: -10.3%; PfKRS1: 3.669%; LiHisRS: 6.849%. For COc1ccc(CCNC(=O)C(C)Nc2ccc(C)c(C)c2)cc1 (configuration not stated) the result was TcHisRS: -3.333%; ClpP1P2: 8.72%; PfKRS1: -6.623%; LiHisRS: 13.51%. CC(=O)N1CCCC(C(=O)NCCc2nc(Cc3ccccc3)no2)C1 (configuration not stated) gave TcHisRS: 3.614%; ClpP1P2: -22.18%; PfKRS1: 4.339%; LiHisRS: 10%. For CS(=O)(=O)Cc1ccc(NC(=O)Cc2cccnc2)cc1F the result was TcHisRS: 11.34%; ClpP1P2: -11.87%; PfKRS1: -0.1783%; LiHisRS: 8.571%. Cn1cc(CN2CC[C@H](O)[C@@H]2Cc2ccccc2)cn1 gave TcHisRS: 4.902%; ClpP1P2: -5.081%; PfKRS1: -0.6941%; LiHisRS: 4%.

With COc1ccc(-c2cccc(CC3(C(=O)O)CCOCC3)c2)cc1 the screen gave TcHisRS: 17.02%; ClpP1P2: -7.699%; PfKRS1: 5.693%; LiHisRS: 7.292%. For Nc1cc(C(=O)NC2CCCN(CCCc3ccccc3)C2)ccn1 (configuration not stated) the result was TcHisRS: -0.5025%; ClpP1P2: -4.363%; PfKRS1: -1.523%; LiHisRS: -17.98%. Cc1noc2ncc(C(=O)N3CCCC(n4ccnc4C)C3)cc12 (configuration not stated) gave TcHisRS: 0%; ClpP1P2: -0.8279%; PfKRS1: 8.866%; LiHisRS: 9.917%. For CCOc1cc(NC(=O)N2CCC3(CCOCC3)C2)ccc1C the result was TcHisRS: 2.762%; ClpP1P2: -0.9104%; PfKRS1: 0.8946%; LiHisRS: 5.181%. Result for CCC(=O)N1CCN(C(=O)c2cn3ccsc3n2)[C@H]2CS(=O)(=O)C[C@H]21 was TcHisRS: 9.231%; ClpP1P2: 0.008804%; PfKRS1: 3.542%; LiHisRS: 18.37%.

Cc1cc(C)nc(Nc2nccnc2C2CCCN(C(CO)CO)C2)n1 (configuration not stated) gave TcHisRS: 3.143%; ClpP1P2: -35.59%; PfKRS1: -0.2904%; LiHisRS: 8.054%. For O=C(c1ncccn1)N1C[C@@H]2COC[C@]2(COc2cccnc2)C1 the result was TcHisRS: 7.407%; ClpP1P2: -10.72%; PfKRS1: 2.057%; LiHisRS: 17.27%. With Fc1cccc(-c2c[nH]c(C3CCCN3)n2)c1 (configuration not stated) the screen gave TcHisRS: 5.732%; ClpP1P2: 2.379%; PfKRS1: 5.096%; LiHisRS: 18.31%. CCNC(=O)N1CCC(=Cc2ccccc2)CC1 read TcHisRS: 0.9804%; ClpP1P2: -11.9%; PfKRS1: 2.793%; LiHisRS: 3.333%. Result for Cc1cs/c(=N/C(=O)c2csc(NCC(C)C)n2)[nH]1 was TcHisRS: 6.061%; ClpP1P2: -16.83%; PfKRS1: 0.6866%; LiHisRS: 75.32%.

COc1ccc2[nH]c(CNc3cc(C4CCNCC4)nc(C)n3)cc2c1 gave TcHisRS: 9.412%; ClpP1P2: -0.7057%; PfKRS1: 2.571%; LiHisRS: 23.02%.

The first 3 entries again:

| SMILES | TcHisRS | ClpP1P2 | PfKRS1 | LiHisRS |
|---|---|---|---|---|
| `CN(Cc1cncnc1)[C@@H]1CN(Cc2ccco2)C[C@@H]2CCCO[C@@H]21` | 12.4% | 8.853% | 1.224% | 10.91% |
| `CCc1nnc(CN(CC)C(=O)C2CC(=O)N(Cc3cccnc3)C2)o1` (configuration not stated) | 3.004% | -7.145% | 1.515% | 1.639% |
| `COc1ccccc1[C@@H]1CN(Cc2ccc3nsnc3c2)C[C@H]1C(=O)O` | 1.058% | -0.3353% | 0.6054% | 21.21% |

The values are deposited in ChEMBL (CHEMBL3988442, “University of Dundee, Small-Polar-MMV Screening Library” (2021)).